Measurements: article PMC6996382
No constants are given. Whether binding was seen depends on the method and setting. Binding seen in cells or lysates may run through a third protein. Some results given as binding are weak or reduced against the parent protein; the word gives no strength.

The chains behind the UniProt entries cited, without tags or fusion partners. Where a name states a change or a piece, a line headed by the entry shows the natural chain unless it says otherwise. Residues count along the entry.
UniProt P46940: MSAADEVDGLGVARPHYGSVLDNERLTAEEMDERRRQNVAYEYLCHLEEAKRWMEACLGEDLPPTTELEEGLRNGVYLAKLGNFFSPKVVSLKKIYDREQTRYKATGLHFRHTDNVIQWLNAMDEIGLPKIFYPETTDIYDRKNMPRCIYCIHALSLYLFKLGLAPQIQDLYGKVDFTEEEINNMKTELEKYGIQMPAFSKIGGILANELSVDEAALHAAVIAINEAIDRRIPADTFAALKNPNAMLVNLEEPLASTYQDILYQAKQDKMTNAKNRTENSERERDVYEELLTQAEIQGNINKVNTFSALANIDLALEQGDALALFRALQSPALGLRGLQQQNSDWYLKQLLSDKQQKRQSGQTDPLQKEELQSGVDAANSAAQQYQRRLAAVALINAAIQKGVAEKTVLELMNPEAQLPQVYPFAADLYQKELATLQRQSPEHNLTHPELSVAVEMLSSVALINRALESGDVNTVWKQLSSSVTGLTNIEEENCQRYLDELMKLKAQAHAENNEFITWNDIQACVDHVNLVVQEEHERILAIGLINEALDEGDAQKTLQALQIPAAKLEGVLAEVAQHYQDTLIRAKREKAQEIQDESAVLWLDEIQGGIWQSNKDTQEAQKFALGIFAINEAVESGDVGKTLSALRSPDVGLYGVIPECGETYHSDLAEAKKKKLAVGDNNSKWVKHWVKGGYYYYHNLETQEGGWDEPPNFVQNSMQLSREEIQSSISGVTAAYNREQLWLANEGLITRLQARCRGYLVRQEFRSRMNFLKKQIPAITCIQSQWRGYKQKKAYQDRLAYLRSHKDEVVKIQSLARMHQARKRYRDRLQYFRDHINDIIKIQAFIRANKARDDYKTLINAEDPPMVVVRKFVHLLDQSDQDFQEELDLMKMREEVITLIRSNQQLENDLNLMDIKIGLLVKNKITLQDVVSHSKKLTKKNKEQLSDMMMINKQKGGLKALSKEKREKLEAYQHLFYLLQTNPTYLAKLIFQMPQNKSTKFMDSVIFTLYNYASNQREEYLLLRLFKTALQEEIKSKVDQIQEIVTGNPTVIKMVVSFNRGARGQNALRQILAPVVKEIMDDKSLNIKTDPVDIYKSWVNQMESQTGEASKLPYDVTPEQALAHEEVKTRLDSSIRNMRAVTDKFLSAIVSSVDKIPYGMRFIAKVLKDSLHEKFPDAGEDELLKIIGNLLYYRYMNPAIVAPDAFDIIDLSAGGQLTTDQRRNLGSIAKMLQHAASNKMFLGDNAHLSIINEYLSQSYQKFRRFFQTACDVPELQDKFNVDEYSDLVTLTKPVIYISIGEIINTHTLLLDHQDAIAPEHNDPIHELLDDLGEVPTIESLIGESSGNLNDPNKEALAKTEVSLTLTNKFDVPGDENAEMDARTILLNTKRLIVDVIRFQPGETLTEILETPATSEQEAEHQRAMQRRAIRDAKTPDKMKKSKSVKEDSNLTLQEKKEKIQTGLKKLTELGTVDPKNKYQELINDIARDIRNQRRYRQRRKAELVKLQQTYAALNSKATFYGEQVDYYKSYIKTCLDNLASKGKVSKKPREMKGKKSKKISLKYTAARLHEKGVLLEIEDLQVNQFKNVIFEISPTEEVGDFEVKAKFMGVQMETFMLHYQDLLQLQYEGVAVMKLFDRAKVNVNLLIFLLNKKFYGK
GST‐IQGAP1‐N (aa 1‐863): residues 1-863 of P46940
GST‐IQGAP1‐C (aa 746‐1657): residues 746-1657 of P46940

B1: p122RhoGTPase‐activating protein (GAP)/deleted in liver cancer‐1 (p122RhoGAP/DLC‐1) (protein, UniProt Q96QB1-1 1-1091)
chain: MCRKKPDTMILTQIEAKEACDWLRATGFPQYAQLYEDFLFPIDISLVKREHDFLDRDAIEALCRRLNTLNKCAVMKLEISPHRKRSDDSDEDEPCAISGKWTFQRDSKRWSRLEEFDVFSPKQDLVPGSPDDSHPKDGPSPGGTLMDLSERQEVSSVRSLSSTGSLPSHAPPSEDAATPRTNSVISVCSSSNLAGNDDSFGSLPSPKELSSFSFSMKGHEKTAKSKTRSLLKRMESLKLKSSHHSKHKAPSKLGLIISGPILQEGMDEEKLKQLNCVEISALNGNRINVPMVRKRSVSNSTQTSSSSSQSETSSAVSTPSPVTRTRSLSACNKRVGMYLEGFDPFNQSTFNNVVEQNFKNRESYPEDTVFYIPEDHKPGTFPKALTNGSFSPSGNNGSVNWRTGSFHGPGHISLRRENSSDSPKELKRRNSSSSMSSRLSIYDNVPGSILYSSSGDLADLENEDIFPELDDILYHVKGMQRIVNQWSEKFSDEGDSDSALDSVSPCPSSPKQIHLDVDNDRTTPSDLDSTGNSLNEPEEPSEIPERRDSGVGASLTRSNRHRLRWHSFQSSHRPSLNSVSLQINCQSVAQMNLLQKYSLLKLTALLEKYTPSNKHGFSWAVPKFMKRIKVPDYKDRSVFGVPLTVNVQRTGQPLPQSIQQAMRYLRNHCLDQVGLFRKSGVKSRIQALRQMNEGAIDCVNYEGQSAYDVADMLKQYFRDLPEPLMTNKLSETFLQIYQYVPKDQRLQAIKAAIMLLPDENREVLQTLLYFLSDVTAAVKENQMTPTNLAVCLAPSLFHLNTLKRENSSPRVMQRKQSLGKPDQKDLNENLAATQGLAHMIAECKKLFQVPEEMSRCRNSYTEQELKPLTLEALGHLGNDDSADYQHFLQDCVDGLFKEVKEKFKGWVSYSTSEQAELSYKKVSEGPPLRLWRSVIEVPAVPEEILKRLLKEQHLWDVDLLDSKVIEILDSQTEIYQYVQNSMAPHPARDYVVLRTWRTNLPKGACALLLTSVDHDRAPVVGVRVNVLLSRYLIEPCGPGKSKLTYMCRVDLRGHMPEWYTKSFGHLCAAEVVKIRDSFSNQNTETKDTKSR
B2: Phospholipase C (PLC)‐δ1 (enzyme, UniProt P51178 1-756)
chain: MDSGRDFLTLHGLQDDEDLQALLKGSQLLKVKSSSWRRERFYKLQEDCKTIWQESRKVMRTPESQLFSIEDIQEVRMGHRTEGLEKFARDVPEDRCFSIVFKDQRNTLDLIAPSPADAQHWVLGLHKIIHHSGSMDQRQKLQHWIHSCLRKADKNKDNKMSFKELQNFLKELNIQVDDSYARKIFRECDHSQTDSLEDEEIEAFYKMLTQRVEIDRTFAEAAGSGETLSVDQLVTFLQHQQREEAAGPALALSLIERYEPSETAKAQRQMTKDGFLMYLLSADGSAFSLAHRRVYQDMGQPLSHYLVSSSHNTYLLEDQLAGPSSTEAYIRALCKGCRCLELDCWDGPNQEPIIYHGYTFTSKILFCDVLRAIRDYAFKASPYPVILSLENHCTLEQQRVMARHLHAILGPMLLNRPLDGVTNSLPSPEQLKGKILLKGKKLGGLLPPGGEGGPEATVVSDEDEAAEMEDEAVRSRVQHKPKEDKLRLAQELSDMVIYCKSVHFGGFSSPGTPGQAFYEMASFSENRALRLLQESGNGFVRHNVGHLSRIYPAGWRTDSSNYSPVEMWNGGCQIVALNFQTPGPEMDVYQGRFQDNGACGYVLKPAFLRDPNGTFNPRALAQGPWWARKRLNIRVISGQQLPKVNKNKNSIVDPKVTVEIHGVSRDVASRQTAVITNNGFNPWWDTEFAFEVVVPDLALIRFLVEDYDASSKNDFIGQSTIPLNSLKQGYRHVHLMSKNGDQHPSATLFVKISLQD
B3: PLC‐δ1 (1‐756) (enzyme, UniProt P51178 1-756)
chain: B2 chain

Tests used:
[1] = biological target: IQ motif‐containing GTPase‐activating protein 1 (IQGAP1) (human (endogenous in skin fibroblasts)) (UniProt P46940); experiment: co-IP; immunoprecipitation with an anti‐IQGAP1 mouse monoclonal antibody on Dynabeads G from skin fibroblast lysates (control subjects and patients with CSA), overnight at 4°C, washed with PBS with 0.02% Tween 20; Western blotting for p122RhoGAP/DLC‐1 and PLC‐δ1
[2] = biological target: GST‐IQGAP1‐C (aa 746‐1657) (human) (UniProt P46940); experiment: pull-down; GST fusion proteins immobilized on Glutathione Sepharose beads incubated for 3 hours at room temperature with supernatants of bacterial crude lysates; beads washed six times with lysis buffer; Western blotting with anti‐RH antibody; only the target purified
[3] = biological target: GST‐IQGAP1‐N (aa 1‐863) (human) (UniProt P46940); experiment: as above

| Binder | binding [1] | binding [2] | binding [3] |
| --- | --- | --- | --- |
| B1 | binds |  |  |
| B2 | binds |  |  |
| B3 |  | no binding | binds |
